Some of the results follow. Many values rest on one well or one pass, so single values are uncertain.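 Imaging used 1,536-well plates; nuclei positive for cleaved PARP by antibody were divided by total DNA-stained nuclei to yield the apoptosis fraction. Doses for screening kept most cells viable, and cell lines differ markedly in resting and induced cleaved-PARP levels.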
Test system: CBRC014 (line from a melanoma biopsy)
Assay: cleaved PARP positive nuclei fraction relative to DMSO control; melanoma cells; higher = more apoptosis
Conditions: library dose: low library concentration; 72 h

Compared with CCCCCCCCCCCCCCCCCCOP(=O)([O-])OC1CC[N+](C)(C)CC1 [Perifosine] + Cn1cc(C2=C(c3cn(C4CCN(Cc5ccccn5)CC4)c4ccccc34)C(=O)NC2=O)c2ccccc21 [Enzastaurin] (first compound 0.4 µM, partner dose 0.8 µM), O=C(/C=C/c1cccnc1)NCCCCC1CCN(C(=O)c2ccccc2)CC1 + N.N.[Cl][Pt][Cl] [cisplatin] (first compound 0.01 µM, partner dose 1.6 µM) is higher in “cleaved PARP positive nuclei fraction” value: 106% for the first, 166% for the second.

First: C=CCNC1=C2C[C@@H](C)C[C@H](OC)[C@H](O)[C@@H](C)/C=C(\C)[C@H](OC(N)=O)[C@@H](OC)/C=C\C=C(/C)C(=O)NC(=CC1=O)C2=O [Tanespimycin] + C[As](C)SC[C@H](NC(=O)CC[C@H](N)C(=O)O)C(=O)NCC(=O)O [Darinaparsin] (first compound 0.002 µM, partner dose 0.4 µM)
Second: Cc1ccc(Nc2nccc(N(C)c3ccc4c(C)n(C)nc4c3)n2)cc1S(N)(=O)=O [Pazopanib] + Cn1cc(C2=C(c3cn(C4CCN(Cc5ccccn5)CC4)c4ccccc34)C(=O)NC2=O)c2ccccc21 [Enzastaurin] (first compound 0.4 µM, partner dose 0.8 µM)
The “cleaved PARP positive nuclei fraction” value of the first is higher: 113% for the first, 95.9% for the second.

First: Cn1sc(=O)n(Cc2ccccc2)c1=O + C[As](C)SC[C@H](NC(=O)CC[C@H](N)C(=O)O)C(=O)NCC(=O)O [Darinaparsin] (first compound 0.4 µM, partner dose 0.4 µM)
Second: CC(C)C[C@H](NC(=O)[C@H](Cc1ccccc1)NC(=O)c1cnccn1)B(O)O [Bortezomib] + N.N.[Cl][Pt][Cl] [cisplatin] (first compound 0.001 µM, partner dose 1.6 µM)
The “cleaved PARP positive nuclei fraction” value of the first is lower: 104% for the first, 192% for the second.

Compared with CC1(C)CCC(c2ccc(Cl)cc2)=C(CN2CCN(c3ccc(C(=O)NS(=O)(=O)c4ccc(N[C@H](CCN5CCOCC5)CSc5ccccc5)c(S(=O)(=O)C(F)(F)F)c4)cc3)CC2)C1 + C[As](C)SC[C@H](NC(=O)CC[C@H](N)C(=O)O)C(=O)NCC(=O)O [Darinaparsin] (first compound 0.4 µM, partner dose 0.4 µM), Cn1cc(C2=C(c3cn(C4CCN(Cc5ccccn5)CC4)c4ccccc34)C(=O)NC2=O)c2ccccc21 [Enzastaurin] + CN(c1ncccc1CNc1nc(Nc2ccc3c(c2)CC(=O)N3)ncc1C(F)(F)F)S(C)(=O)=O [PF562271] (first compound 0.8 µM, partner dose 0.08 µM) is lower in “cleaved PARP positive nuclei fraction” value: 516% for the first, 91.1% for the second.

Compared with Cc1cc(Nc2cc(N3CCN(C)CC3)nc(Sc3ccc(NC(=O)C4CC4)cc3)n2)n[nH]1 [Tozasertib] + C[As](C)SC[C@H](NC(=O)CC[C@H](N)C(=O)O)C(=O)NCC(=O)O [Darinaparsin] (first compound 0.006 µM, partner dose 0.4 µM), Cc1cc(Nc2cc(N3CCN(C)CC3)nc(/C=C/c3ccccc3)n2)n[nH]1 + C[As](C)SC[C@H](NC(=O)CC[C@H](N)C(=O)O)C(=O)NCC(=O)O [Darinaparsin] (first compound 0.04 µM, partner dose 0.4 µM) is higher in “cleaved PARP positive nuclei fraction” value: 103% for the first, 121% for the second.

Compared with CS(=O)(=O)c1ccc(C(=O)Nc2ccc(Cl)c(-c3ccccn3)c2)c(Cl)c1 [vismodegib] + N.N.[Cl][Pt][Cl] [cisplatin] (first compound 1 µM, partner dose 1.6 µM), O=C(Nc1cc(C(F)(F)F)cc(C(F)(F)F)c1)c1cc(Cl)ccc1O + C[As](C)SC[C@H](NC(=O)CC[C@H](N)C(=O)O)C(=O)NCC(=O)O [Darinaparsin] (first compound 0.016 µM, partner dose 0.4 µM) is lower in “cleaved PARP positive nuclei fraction” value: 88.3% for the first, 81.4% for the second.

Compared with Cc1cn(-c2cc(NC(=O)c3ccc(C)c(Nc4nccc(-c5cccnc5)n4)c3)cc(C(F)(F)F)c2)cn1 [nilotinib] + C[C@]12O[C@H](C[C@]1(O)CO)n1c3ccccc3c3c4c(c5c6ccccc6n2c5c31)CNC4=O [Lestaurtinib] (first compound 0.2 µM, partner dose 0.004 µM), O=C(Nc1cc(C(F)(F)F)cc(C(F)(F)F)c1)c1cc(Cl)ccc1O + Cn1cc(C2=C(c3cn(C4CCN(Cc5ccccn5)CC4)c4ccccc34)C(=O)NC2=O)c2ccccc21 [Enzastaurin] (first compound 0.016 µM, partner dose 0.8 µM) is higher in “cleaved PARP positive nuclei fraction” value: 86% for the first, 91.5% for the second.

Compared with C[As](C)SC[C@H](NC(=O)CC[C@H](N)C(=O)O)C(=O)NCC(=O)O [Darinaparsin] + Cn1c(Nc2ccc(C(F)(F)F)cc2)nc2cc(Oc3ccnc(-c4ncc(C(F)(F)F)[nH]4)c3)ccc21 [CHIR265] (first compound 0.4 µM, partner dose 0.08 µM), Cn1cnc2c(F)c(Nc3ccc(Br)cc3Cl)c(C(=O)NOCCO)cc21 [selumetinib] + Cn1cc(C2=C(c3cn(C4CCN(Cc5ccccn5)CC4)c4ccccc34)C(=O)NC2=O)c2ccccc21 [Enzastaurin] (first compound 0.015 µM, partner dose 0.8 µM) is lower in “cleaved PARP positive nuclei fraction” value: 111% for the first, 66.1% for the second.

Compared with C[C@]12O[C@H](C[C@]1(O)CO)n1c3ccccc3c3c4c(c5c6ccccc6n2c5c31)CNC4=O [Lestaurtinib] + O=C(O)c1ccc2c(c1)nc(Nc1cccc(Cl)c1)c1ccncc12 [CX4945] (first compound 0.004 µM, partner dose 0.4 µM), Cn1cc(C2=C(c3cn(C4CCN(Cc5ccccn5)CC4)c4ccccc34)C(=O)NC2=O)c2ccccc21 [Enzastaurin] + CCN(CC)CCNC(=O)c1c(C)[nH]c(/C=C2\C(=O)Nc3ccc(F)cc32)c1C [sunitinib] (first compound 0.8 µM, partner dose 0.4 µM) is higher in “cleaved PARP positive nuclei fraction” value: 107% for the first, 123% for the second.

First: CC(=O)c1c(C)c2cnc(Nc3ccc(N4CCNCC4)cn3)nc2n(C2CCCC2)c1=O [palbociclib] + C[As](C)SC[C@H](NC(=O)CC[C@H](N)C(=O)O)C(=O)NCC(=O)O [Darinaparsin] (first compound 0.04 µM, partner dose 0.4 µM)
Second: Cc1cc(Nc2cc(N3CCN(C)CC3)nc(Sc3ccc(NC(=O)C4CC4)cc3)n2)n[nH]1 [Tozasertib] + Cn1cc(C2=C(c3cn(C4CCN(Cc5ccccn5)CC4)c4ccccc34)C(=O)NC2=O)c2ccccc21 [Enzastaurin] (first compound 0.006 µM, partner dose 0.8 µM)
The “cleaved PARP positive nuclei fraction” value of the first is higher: 104% for the first, 99.2% for the second.

Compared with NC1(c2ccc(-c3nc4ccn5c(=O)[nH]nc5c4cc3-c3ccccc3)cc2)CCC1 + N.N.[Cl][Pt][Cl] [cisplatin] (first compound 0.4 µM, partner dose 1.6 µM), Cn1cc(C2=C(c3cn(C4CCN(Cc5ccccn5)CC4)c4ccccc34)C(=O)NC2=O)c2ccccc21 [Enzastaurin] + CNC(=O)c1cc(Oc2ccc(NC(=O)Nc3ccc(Cl)c(C(F)(F)F)c3)cc2)ccn1 [sorafenib] (first compound 0.8 µM, partner dose 0.4 µM) is higher in “cleaved PARP positive nuclei fraction” value: 85.5% for the first, 97% for the second.

Going from Nc1nc(F)nc2c1ncn2[C@@H]1O[C@H](CO)[C@@H](O)[C@@H]1O [fludarabine] + C[As](C)SC[C@H](NC(=O)CC[C@H](N)C(=O)O)C(=O)NCC(=O)O [Darinaparsin] (first compound 0.2 µM, partner dose 0.4 µM) to C[C@]12O[C@H](C[C@]1(O)CO)n1c3ccccc3c3c4c(c5c6ccccc6n2c5c31)CNC4=O [Lestaurtinib] + Nc1cccc2c1CN(C1CCC(=O)NC1=O)C2=O [lenalidomide] (first compound 0.004 µM, partner dose 1 µM), the “cleaved PARP positive nuclei fraction” value falls from 102% to 88.2%.

Going from N.N.[Cl][Pt][Cl] [cisplatin] + Cn1nnc2c(C(N)=O)ncn2c1=O [temozolomide] (first compound 1.6 µM, partner dose 2 µM) to C[C@]12O[C@H](C[C@]1(O)CO)n1c3ccccc3c3c4c(c5c6ccccc6n2c5c31)CNC4=O [Lestaurtinib] + OCc1c[nH]c2ccccc12 [Indole-3-carbinol] (first compound 0.004 µM, partner dose 0.8 µM), the “cleaved PARP positive nuclei fraction” value falls from 112% to 86.8%.

Going from Cc1cn(-c2cc(NC(=O)c3ccc(C)c(Nc4nccc(-c5cccnc5)n4)c3)cc(C(F)(F)F)c2)cn1 [nilotinib] + C[As](C)SC[C@H](NC(=O)CC[C@H](N)C(=O)O)C(=O)NCC(=O)O [Darinaparsin] (first compound 0.2 µM, partner dose 0.4 µM) to Cn1cc(C2=C(c3cn(C4CCN(Cc5ccccn5)CC4)c4ccccc34)C(=O)NC2=O)c2ccccc21 [Enzastaurin] + C[C@]1(O)C[C@@H](c2nc(-c3ccc4ccc(-c5ccccc5)nc4c3)c3c(N)nccn32)C1 [OSI906] (first compound 0.8 µM, partner dose 0.4 µM), the “cleaved PARP positive nuclei fraction” value falls from 105% to 82.1%.

C#Cc1cccc(Nc2ncnc3cc(OCCOC)c(OCCOC)cc23)c1 [erlotinib] + C[As](C)SC[C@H](NC(=O)CC[C@H](N)C(=O)O)C(=O)NCC(=O)O [Darinaparsin] (first compound 0.8 µM, partner dose 0.4 µM) and N.N.[Cl][Pt][Cl] [cisplatin] + C[C@@H](Oc1cc(-c2cnn(C3CCNCC3)c2)cnc1N)c1c(Cl)ccc(F)c1Cl [Crizotinib] (first compound 1.6 µM, partner dose 0.2 µM) are the same in “cleaved PARP positive nuclei fraction” value: 102% for the first, 102% for the second.

Source: the supplement of paper PMC4604168 (melanoma cell lines)
